# Laboratory results reported in the supplement of paper PMC10331698.
# ± gives the standard deviation of the averaged measurements. Most values lie at the level of the controls, where differences are scatter.
# Tests used:
# Test in all cases: level (log10 ratio to DMSO vehicle control); higher = higher biomarker level / cell amount than vehicle control
# Heptafluorobutyl iodide = compound: FC(F)(F)C(F)(F)C(F)(F)CI [Heptafluorobutyl iodide]; details: 2200 nM; in DMSO
# Protocol: (§1)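 BioMAP Diversity Plus panel of 12 human primary cell co-culture systems (3C, 4H, LPS, SAg, BT, BF4T, BE3C, CASM3C, HDF3CGF, KF3CT, MyoF, Mphg). Compounds were added 1 h before stimulation and left for 24 h (MyoF 48 h; BT 72 h for soluble read-outs or 6 d for IgG). Biomarkers were read by ELISA, cytotoxicity by SRB, PBMC viability and proliferation by Alamar Blue. Each well value was divided by the mean of 8 DMSO control wells on the same plate and log10 transformed; duplicate blinded samples were tested at 4 concentrations.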
# [1] = compound: C=C(C)C(=O)OCC(F)(F)C(F)(F)C(F)(F)C(F)(F)C(F)(F)C(F)(F)C(F)(F)F; details: in DMSO
# Protocol: as §1
# [2] = compound: O=S(=O)(F)C(F)(F)C(F)(F)C(F)(F)C(F)(F)C(F)(F)C(F)(F)C(F)(F)C(F)(F)F [Perfluorooctanesulfonyl fluoride]; details: 2200 nM; in DMSO
# Protocol: as §1
# [3] = compound: O=S(=O)(O)C(F)(F)C(F)(F)C(F)(F)C(F)(F)C(F)(F)C(F)(F)C(F)(F)C(F)(F)F [Potassium perfluorooctanesulfonate]; details: 2200 nM; in DMSO
# Protocol: as §1
# [4] = compound: O=C(O)C(F)(F)C(F)(F)C(F)F [4H-Perfluorobutanoic acid]; details: in DMSO
# Protocol: as §1
# Pentafluoropropionamide = compound: NC(=O)C(F)(F)C(F)(F)F [Pentafluoropropionamide]; details: 2200 nM; in DMSO
# Protocol: as §1
# [5] = compound: NC(=O)C(F)(F)C(F)(F)C(F)(F)C(F)F; details: in DMSO
# Protocol: as §1
# [6] = compound: OCCCCC(F)(F)C(F)(F)C(F)(F)C(F)(F)F [4:4 Fluorotelomer alcohol]; details: 2200 nM; in DMSO
# Protocol: as §1
# [7] = compound: COC(=O)C(F)(F)C(F)(F)OC(F)(C(F)(F)F)C(F)(F)OC(F)=C(F)F [Methyl perfluoro(3-(1-ethenyloxypropan-2-yloxy)propanoate)]; details: in DMSO
# Protocol: as §1
# [8] = compound: O=P(O)(O)CCC(F)(F)C(F)(F)C(F)(F)C(F)(F)C(F)(F)C(F)(F)F [2-(Perfluorohexyl)ethylphosphonic acid]; details: 2200 nM; in DMSO
# Protocol: as §1
# [9] = compound: O=S(=O)(OCC(F)(F)F)C(F)(F)C(F)(F)C(F)(F)C(F)(F)F [2,2,2-Trifluoroethyl perfluorobutanesulfonate]; details: 2200 nM; in DMSO
# Protocol: as §1
# [10] = compound: OCC(F)(F)C(F)(F)C(F)(F)C(F)(F)C(F)(F)C(F)F [1H,1H,7H-Dodecafluoro-1-heptanol]; details: 2200 nM; in DMSO
# Protocol: as §1
# [11] = compound: C=CC(=O)OCC(F)(F)C(F)(F)C(F)(F)C(F)(F)C(F)(F)C(F)(F)C(F)(F)F [1H,1H-Perfluorooctyl acrylate]; details: 2200 nM; in DMSO
# Protocol: as §1
# [12] = compound: NS(=O)(=O)C(F)(F)C(F)(F)C(F)(F)C(F)(F)C(F)(F)C(F)(F)C(F)(F)C(F)(F)F [Perfluorooctanesulfonamide]; details: in DMSO
# Protocol: as §1
# [13] = compound: CO[Si](C)(CCC(F)(F)C(F)(F)C(F)(F)C(F)(F)C(F)(F)C(F)(F)F)OC [Dimethoxymethyl((perfluorohexyl)ethyl)silane]; details: in DMSO
# Protocol: as §1
# [14] = compound: C=CC(F)(F)C(F)(F)C(F)(F)C(F)(F)C(F)(F)C(F)(F)C(F)(F)C(F)(F)C=C [1,8-Divinylperfluorooctane]; details: in DMSO
# Protocol: as §1
# [15] = compound: O=S(=O)(O)C(F)(F)C(F)(F)C(F)(F)C(F)(F)C(F)(F)C(F)(F)C(F)(F)C(F)(F)F [Perfluorooctanesulfonic acid]; details: 2200 nM; in DMSO
# Protocol: as §1
# [16] = compound: FC(F)(F)C(F)(F)C(F)(F)CC1CO1 [1H,1H-Heptafluorobutyl epoxide]; details: 2200 nM; in DMSO
# Protocol: as §1
Test System,level (log10) (Heptafluorobutyl iodide),level (log10) ([1]; 740 nM),level (log10) ([1]; 2200 nM),level (log10) [2],level (log10) [3],level (log10) ([4]; 2200 nM),level (log10) ([4]; 6700 nM),level (log10) ([4]; 20000 nM),level (log10) ([4]; 60000 nM),level (log10) (Pentafluoropropionamide),level (log10) ([5]; 2200 nM),level (log10) ([5]; 6700 nM),level (log10) ([5]; 20000 nM),level (log10) ([5]; 60000 nM),level (log10) [6],level (log10) ([7]; 740 nM),level (log10) ([7]; 2200 nM),level (log10) [8],level (log10) [9],level (log10) [10],level (log10) [11],level (log10) ([12]; 2200 nM),level (log10) ([12]; 6700 nM),level (log10) ([12]; 20000 nM),level (log10) ([13]; 740 nM),level (log10) ([13]; 2200 nM),level (log10) ([14]; 740 nM),level (log10) ([14]; 2200 nM),level (log10) [15],level (log10) [16]
SAg:Proliferation,-0.024 ± 0.076,0.0145 ± 0.026,-0.0005 ± 0.0021,-0.006 ± 0.058,0.0215 ± 0.043,-0.025 ± 0.014,-0.0545 ± 0.026,-0.0325 ± 0.025,-0.0145 ± 0.03,0.004 ± 0.03,-0.0075 ± 0.00071,-0.0135 ± 0.018,0.0105 ± 0.0064,0.033 ± 0.018,-0.018 ± 0.023,0.0045 ± 0.042,-0.0065 ± 0.005,-0.0155 ± 0.013,0.035 ± 0.033,0.012 ± 0.014,-0.0165 ± 0.056,-0.0155 ± 0.057,-0.031 ± 0.042,-0.0445 ± 0.036,0.0155 ± 0.12,0.0045 ± 0.083,0.009 ± 0.034,0.0245 ± 0.035,0.005 ± 0.083,0.006 ± 0.0042
BF4T:CXCL8/IL-8,0.0635 ± 0.11,0.0225 ± 0.012,-0.0005 ± 0.005,0.014 ± 0.035,0.0105 ± 0.076,0.04 ± 0.03,0.0385 ± 0.0078,0.046 ± 0.024,0.0445 ± 0.04,0.0285 ± 0.03,0.0155 ± 0.028,0 ± 0.0071,-0.0105 ± 0.005,-0.009 ± 0.0071,0.0025 ± 0.047,0.0315 ± 0.059,0.021 ± 0.047,-0.004 ± 0.051,0.0155 ± 0.019,0.0105 ± 0.08,0.0435 ± 0.023,-0.012 ± 0.038,0.003 ± 0.0057,0.0405 ± 0.013,0.018 ± 0.037,-0.006 ± 0.04,0.0215 ± 0.037,0.0085 ± 0.029,0.007 ± 0.025,0.0235 ± 0.013
KF3CT:CCL2/MCP-1,-0.005 ± 0.013,0.03 ± 0.089,-0.005 ± 0.028,-0.014 ± 0.0028,0.019 ± 0.024,-0.0325 ± 0.025,-0.0705 ± 0.0092,-0.032 ± 0.0099,-0.0115 ± 0.023,0.0015 ± 0.036,0.012 ± 0.067,-0.0055 ± 0.018,-0.0245 ± 0.0078,0.0205 ± 0.026,-0.0065 ± 0.0078,-0.0115 ± 0.00071,0.0095 ± 0.0021,-0.0145 ± 0.063,-0.005 ± 0.024,0.0385 ± 0.073,-0.0375 ± 0.054,0.0555 ± 0.03,0.025 ± 0.016,0.116 ± 0.037,0.001 ± 0.042,-0.032 ± 0.013,0.005 ± 0.054,-0.017 ± 0.011,-0.0035 ± 0.015,-0.0075 ± 0.071
BE3C:CD87/uPAR,-0.0115 ± 0.0021,0.033 ± 0.037,0.006 ± 0.04,-0.0035 ± 0.011,0.0115 ± 0.071,0.011 ± 0.025,-0.003 ± 0.013,-0.0175 ± 0.019,0.0015 ± 0.005,0.011 ± 0.03,-0.013 ± 0.027,-0.02 ± 0.011,-0.0205 ± 0.0035,-0.0145 ± 0.015,0.0205 ± 0.071,0.0285 ± 0.018,0.029 ± 0.033,0.0205 ± 0.0078,-0.0285 ± 0.005,0.008 ± 0.04,-0.011 ± 0.0014,0.005 ± 0.03,-0.01 ± 0.0071,-0.0025 ± 0.019,0.018 ± 0.013,0.0165 ± 0.022,0.0045 ± 0.042,-0.01 ± 0.035,0.02 ± 0.037,0.0165 ± 0.015
HDF3CGF:SRB,-0.018 ± 0.02,-0.0135 ± 0.056,0 ± 0.017,0.014 ± 0.0028,-0.0255 ± 0.013,-0.0275 ± 0.015,-0.0125 ± 0.06,-0.0095 ± 0.0035,0.0155 ± 0.022,-0.0245 ± 0.035,0.0175 ± 0.03,-0.007 ± 0.0042,0.0065 ± 0.016,-0.0035 ± 0.015,-0.0165 ± 0.056,0.021 ± 0.0085,-0.002 ± 0.027,-0.0225 ± 0.012,0.026 ± 0.013,-0.057 ± 0.014,0.031 ± 0.024,-0.0215 ± 0.03,-0.028 ± 0.055,0.0615 ± 0.019,-0.0235 ± 0.052,-0.0235 ± 0.067,-0.0205 ± 0.0021,-0.0225 ± 0.043,0.0065 ± 0.036,-0.0295 ± 0.013
3C:CD142/Tissue Factor,-0.0335 ± 0.026,-0.0235 ± 0.028,-0.027 ± 0.024,-0.0135 ± 0.005,-0.013 ± 0.047,-0.022 ± 0.031,-0.004 ± 0.0014,-0.021 ± 0.0099,0.0105 ± 0.005,-0.044 ± 0.051,-0.0145 ± 0.053,-0.0025 ± 0.066,0.006 ± 0.033,0.0115 ± 0.036,0.0065 ± 0.064,-0.008 ± 0.02,-0.0145 ± 0.0064,0.032 ± 0.09,-0.003,0.0305 ± 0.0078,0.0125 ± 0.03,-0.021 ± 0.02,-0.05 ± 0.017,-0.033 ± 0.031,0.003 ± 0.051,0.0215 ± 0.0021,-0.0345 ± 0.06,-0.0375 ± 0.00071,-0.0075 ± 0.039,0.0245 ± 0.015
MyoF:MMP-1,-0.001 ± 0.018,0.028 ± 0.13,-0.0035 ± 0.071,0.0105 ± 0.03,0.0085 ± 0.076,0.0125 ± 0.016,-0.0355 ± 0.07,-0.07 ± 0.054,0.022 ± 0.044,0.0225 ± 0.11,0 ± 0.075,-0.018 ± 0.038,-0.034 ± 0.02,0.014 ± 0.028,0.038 ± 0.067,0.0195 ± 0.074,-0.0065 ± 0.015,0.0305 ± 0.079,0.043 ± 0.048,0.0355 ± 0.07,-0.0055 ± 0.05,-0.002 ± 0.099,-0.038 ± 0.013,0.0955 ± 0.04,-0.0165 ± 0.015,-0.011 ± 0.025,0.011 ± 0.11,-0.056 ± 0.011,-0.011 ± 0.044,0.0355 ± 0.037
BF4T:CCL2/MCP-1,0.0175 ± 0.059,0.013 ± 0.041,0.0005 ± 0.015,-0.0165 ± 0.032,0.0385 ± 0.088,-0.023 ± 0.025,-0.012 ± 0.0085,0.004 ± 0.011,0.0475 ± 0.069,0.003 ± 0.014,0.044 ± 0.081,0.008 ± 0.0042,-0.0135 ± 0.0092,0.0165 ± 0.047,0.025 ± 0.0028,0.027 ± 0.023,0.011 ± 0.0085,-0.002 ± 0.038,0.017 ± 0.03,0.029 ± 0.071,0.015 ± 0.051,-0.005 ± 0.021,-0.084 ± 0.0071,-0.0565 ± 0.018,0.013 ± 0.05,-0.0085 ± 0.0064,0.0185 ± 0.0064,-0.012 ± 0.0028,0.029 ± 0.011,0.0135 ± 0.011
